Laboratory results published in PubChem BioAssay AID1347076 (National Center for Advancing Translational Sciences (NCATS), 2019).
Screen size: about 400,000 compounds; about 13,000 (3.2%) were called active. Inconclusive means that the source gave no clear call. Such entries were picked first, then a sample of the others. Calls come from the whole dose curve; as a rule, active = well fitted cell-killing curve with a large enough effect; inconclusive = small, poorly fitted or top-dose-only effect, or effect the other way; inactive = flat fitted curve, though single readings scatter. Where the call is inconclusive, the potency comes from a doubtful curve fit.

Assay: qHTS assay for MDR1-selective chemotherapeutics: Primary screen using the drug-selected MDR subline cells KB-V1; note: nearly all actives have a fitted effect of over 60% in size
Conditions: KB-V1 MDR cells viability, CellTiter-Glo, 72 h; series mostly up to 46.1 µM
Summary of the method: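 Readout: CellTiter-Glo luminescence, 10 min after addition. Cells: KB-V1 MDR subline, 72 h at 37 degrees C with compound. Analysis: corrected, normalized data fitted to concentration-effect curves.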
Potency is the fitted concentration of half-maximal effect.

Compound | Potency
CCCc1ccc(OCC(O)CN2CCN(c3ccccn3)CC2)cc1 (centres undefined) | inactive
CNCc1c(OCc2ccccc2F)ccc2ccccc12 | active: 11.6 µM
CCn1c(CSc2nc3ccccc3s2)nnc1SCC(=O)OC(C)(C)C | inconclusive: 2.91 µM [cytotoxic, partial curve, poor fit]
CCN(CCCNC(=O)c1cc2c(=O)n(CC)c3ccccc3c2s1)c1ccccc1 | inactive
CCn1c2ccccc2c2cc(NC(=O)c3ccc(C)c([N+](=O)[O-])c3)ccc21 | inactive
Cc1nc2nc(SCC(=O)NCc3ccco3)nn2c(C)c1Cc1ccccc1 | inconclusive: 25.9 µM [cytotoxic, single point]
N#C/C(=C\c1ccco1)C(=O)Nc1cccc2ncccc12 | inconclusive: 0.164 µM [rising, full curve, poor fit]
COCCCNC(=O)c1c(NC(=O)Cc2coc3cc(C)cc(C)c23)sc2c1CCCC2 | inactive
Cc1csc(NC(=O)CSc2ccc(-c3ccccn3)nn2)n1 | inconclusive: 6.51 µM [cytotoxic, partial curve, poor fit]
CCCCC[C@H](C)N1C[C@@H](COCc2ccccc2)Oc2cc(N3CCC[C@@H]3COC)ccc2S1(=O)=O | inconclusive: 13 µM [cytotoxic, partial curve]
O=C(c1ccc2c(c1)N(Cc1ccccc1F)C(=O)c1ccccc1S2(=O)=O)N1CCCC1 | inconclusive: 29.1 µM [cytotoxic, partial curve, poor fit]
COc1ccc(NC(=O)CN(C)C(=O)c2cc(-c3cccs3)nn2-c2ccccc2)cc1 | inconclusive: 8.2 µM [cytotoxic, partial curve]
CC1(C)SC(=S)N(NC(=O)Nc2cccc3ccccc23)C1N(O)C(=O)Nc1ccccc1 (centres undefined) | inconclusive: 29.1 µM [cytotoxic, single point]
Cc1cc(Oc2ccc([N+](=O)[O-])cc2)nc(N2CCOCC2)n1 | inconclusive: 9.2 µM [rising, partial curve]
CC(NC(=O)CCSCc1ccccc1F)c1ccccc1 (centres undefined) | inconclusive: 29.1 µM [rising, single point]
CS(=O)(=O)c1ccc(Oc2ccc(-c3nnco3)cc2)c([N+](=O)[O-])c1 | inconclusive: 32.6 µM [rising, single point]
CC1CCCC(C)N1C(=O)CSc1nnc(C2CCCCC2)o1 (centres undefined) | inactive
COc1cc2c(-c3ccccc3)c(C)oc2cc1/C=N/NC(N)=S | inactive
COc1ccc(CCN2C(=O)CSC2=Nc2ccc(C)cc2C)cc1OC | inconclusive: 10.3 µM [cytotoxic, partial curve]

Some of the entries above in a different format.

| Compound | Potency |
| --- | --- |
| CCn1c2ccccc2c2cc(NC(=O)c3ccc(C)c([N+](=O)[O-])c3)ccc21 | inactive |
| COCCCNC(=O)c1c(NC(=O)Cc2coc3cc(C)cc(C)c23)sc2c1CCCC2 | inactive |
